Data from article PMC9481740.
Numbering of substitutions follows the chain as printed. In names and notes the source's numbering stands. Results are given in words; binding and its absence hold for the method and conditions named. For some of these results: Tags and fused reporters may be left off the sequences shown. Values belong to the binder of their own block, whether it stands above or below them.

Legend:
Spindly^250–605 (human) = target: T1, Spindly^250–605 (human) (UniProt Q96EA4); experiment: SEC; Spindly N-terminal and C-terminal fragments mixed, 10 µM each; 4°C, Spindly buffer; fractions on SDS-PAGE; both purified
T1 sequence: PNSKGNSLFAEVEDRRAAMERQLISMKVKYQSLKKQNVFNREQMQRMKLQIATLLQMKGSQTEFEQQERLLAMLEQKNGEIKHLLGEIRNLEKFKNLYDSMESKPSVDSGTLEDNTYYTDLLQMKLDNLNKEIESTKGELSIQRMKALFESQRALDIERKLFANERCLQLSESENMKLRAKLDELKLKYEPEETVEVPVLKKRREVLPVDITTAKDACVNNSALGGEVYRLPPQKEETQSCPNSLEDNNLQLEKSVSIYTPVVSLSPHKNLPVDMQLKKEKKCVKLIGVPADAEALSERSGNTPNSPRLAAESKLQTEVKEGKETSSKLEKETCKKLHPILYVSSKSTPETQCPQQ

[1] = target: Dynactin pointed-end (PE) capping complex (p25, p27, p62, Arp11) (UniProt Q9NZ32); experiment: SEC; PE complex 3 µM mixed with Spindly construct 8 µM (Fig. 3 F: 4 µM and 10 µM), at least 1 h on ice; Superdex 200 5/150 (named in the legend of Fig. 5); 4°C, Spindly buffer (50 mM Hepes pH 8.0, 250 mM NaCl, 2 mM TCEP); fractions on SDS-PAGE; both purified
[2] = target: T2, Spindly^250–275_307–605 (human) (UniProt Q96EA4); experiment: SEC; Spindly N-terminal and C-terminal fragments mixed, 10 µM each; 4°C, Spindly buffer; fractions on SDS-PAGE; both purified
T2 sequence: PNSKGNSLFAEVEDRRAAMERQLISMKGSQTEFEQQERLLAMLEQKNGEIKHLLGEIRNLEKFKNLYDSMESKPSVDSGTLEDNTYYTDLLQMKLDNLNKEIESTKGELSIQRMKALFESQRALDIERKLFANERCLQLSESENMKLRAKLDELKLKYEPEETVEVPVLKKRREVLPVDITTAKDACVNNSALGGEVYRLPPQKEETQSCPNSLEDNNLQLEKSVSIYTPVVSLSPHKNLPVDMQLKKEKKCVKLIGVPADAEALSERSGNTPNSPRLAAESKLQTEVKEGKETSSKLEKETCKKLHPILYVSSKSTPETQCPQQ

binding (Spindly^250–605 (human)): no binding (tested: 10 µM each)
B1: Spindly^51–250 (domain or fragment, UniProt Q96EA4 51-250)
chain: MTESYEQEKYTLQREVELKSRMLESLSCECEAIKQQQKMHLEKLEEQLSRSHGQEVNELKTKIEKLKVELDEARLSEKQLKHQVDHQKELLSCKSEELRVMSERVQESMSSEMLALQIELTEMESMKTTLKEEVNELQYRQEQLELLITNLMRQVDRLKEEKEEREKEAVSYYNALEKARVANQDLQVQLDQALQQALDP

B2: ^mChSpindly^22–605 (domain or fragment, UniProt Q96EA4 22-605)
chain: KAAQYGLQLVESQNELQNQLDKCRNEMMTMTESYEQEKYTLQREVELKSRMLESLSCECEAIKQQQKMHLEKLEEQLSRSHGQEVNELKTKIEKLKVELDEARLSEKQLKHQVDHQKELLSCKSEELRVMSERVQESMSSEMLALQIELTEMESMKTTLKEEVNELQYRQEQLELLITNLMRQVDRLKEEKEEREKEAVSYYNALEKARVANQDLQVQLDQALQQALDPNSKGNSLFAEVEDRRAAMERQLISMKVKYQSLKKQNVFNREQMQRMKLQIATLLQMKGSQTEFEQQERLLAMLEQKNGEIKHLLGEIRNLEKFKNLYDSMESKPSVDSGTLEDNTYYTDLLQMKLDNLNKEIESTKGELSIQRMKALFESQRALDIERKLFANERCLQLSESENMKLRAKLDELKLKYEPEETVEVPVLKKRREVLPVDITTAKDACVNNSALGGEVYRLPPQKEETQSCPNSLEDNNLQLEKSVSIYTPVVSLSPHKNLPVDMQLKKEKKCVKLIGVPADAEALSERSGNTPNSPRLAAESKLQTEVKEGKETSSKLEKETCKKLHPILYVSSKSTPETQCPQQ
binding [1]: no binding (tested: Spindly construct 8 µM, PE 3 µM)

B3: ^mChSpindly^SM*^-CC2* (F258A, R295E-K297E) (protein, UniProt Q96EA4 1-605)
chain: MEADIITNLRCRLKEAEEERLKAAQYGLQLVESQNELQNQLDKCRNEMMTMTESYEQEKYTLQREVELKSRMLESLSCECEAIKQQQKMHLEKLEEQLSRSHGQEVNELKTKIEKLKVELDEARLSEKQLKHQVDHQKELLSCKSEELRVMSERVQESMSSEMLALQIELTEMESMKTTLKEEVNELQYRQEQLELLITNLMRQVDRLKEEKEEREKEAVSYYNALEKARVANQDLQVQLDQALQQALDPNSKGNSLAAEVEDRRAAMERQLISMKVKYQSLKKQNVFNREQMQEMELQIATLLQMKGSQTEFEQQERLLAMLEQKNGEIKHLLGEIRNLEKFKNLYDSMESKPSVDSGTLEDNTYYTDLLQMKLDNLNKEIESTKGELSIQRMKALFESQRALDIERKLFANERCLQLSESENMKLRAKLDELKLKYEPEETVEVPVLKKRREVLPVDITTAKDACVNNSALGGEVYRLPPQKEETQSCPNSLEDNNLQLEKSVSIYTPVVSLSPHKNLPVDMQLKKEKKCVKLIGVPADAEALSERSGNTPNSPRLAAESKLQTEVKEGKETSSKLEKETCKKLHPILYVSSKSTPETQCPQQ
binding [1]: no binding (tested: Spindly construct 8 µM, PE 3 µM)

B4: GST-Spindly^FL (protein, UniProt Q96EA4 1-605)
chain: B3 chain with A258F, E295R, E297K
binding [1]: no binding (tested: Spindly construct 8 µM, PE 3 µM)

B5: ^mChSpindly^∆26–28 (protein, UniProt Q96EA4 1-605)
chain: MEADIITNLRCRLKEAEEERLKAAQQLVESQNELQNQLDKCRNEMMTMTESYEQEKYTLQREVELKSRMLESLSCECEAIKQQQKMHLEKLEEQLSRSHGQEVNELKTKIEKLKVELDEARLSEKQLKHQVDHQKELLSCKSEELRVMSERVQESMSSEMLALQIELTEMESMKTTLKEEVNELQYRQEQLELLITNLMRQVDRLKEEKEEREKEAVSYYNALEKARVANQDLQVQLDQALQQALDPNSKGNSLFAEVEDRRAAMERQLISMKVKYQSLKKQNVFNREQMQRMKLQIATLLQMKGSQTEFEQQERLLAMLEQKNGEIKHLLGEIRNLEKFKNLYDSMESKPSVDSGTLEDNTYYTDLLQMKLDNLNKEIESTKGELSIQRMKALFESQRALDIERKLFANERCLQLSESENMKLRAKLDELKLKYEPEETVEVPVLKKRREVLPVDITTAKDACVNNSALGGEVYRLPPQKEETQSCPNSLEDNNLQLEKSVSIYTPVVSLSPHKNLPVDMQLKKEKKCVKLIGVPADAEALSERSGNTPNSPRLAAESKLQTEVKEGKETSSKLEKETCKKLHPILYVSSKSTPETQCPQQ
binding [1]: no binding (tested: Spindly construct 8 µM, PE 3 µM)

binding [2]: no binding (tested: 10 µM each)
B6: Spindly^1–250 (domain or fragment, UniProt Q96EA4 1-250)
chain: MEADIITNLRCRLKEAEEERLKAAQYGLQLVESQNELQNQLDKCRNEMMTMTESYEQEKYTLQREVELKSRMLESLSCECEAIKQQQKMHLEKLEEQLSRSHGQEVNELKTKIEKLKVELDEARLSEKQLKHQVDHQKELLSCKSEELRVMSERVQESMSSEMLALQIELTEMESMKTTLKEEVNELQYRQEQLELLITNLMRQVDRLKEEKEEREKEAVSYYNALEKARVANQDLQVQLDQALQQALDP
binding [1]: no binding (tested: Spindly construct 8 µM, PE 3 µM)
